This passage reports binding results from PMC11067983.

Amino acid sequences for entries named in this document (tags omitted).
UniProt Q15648: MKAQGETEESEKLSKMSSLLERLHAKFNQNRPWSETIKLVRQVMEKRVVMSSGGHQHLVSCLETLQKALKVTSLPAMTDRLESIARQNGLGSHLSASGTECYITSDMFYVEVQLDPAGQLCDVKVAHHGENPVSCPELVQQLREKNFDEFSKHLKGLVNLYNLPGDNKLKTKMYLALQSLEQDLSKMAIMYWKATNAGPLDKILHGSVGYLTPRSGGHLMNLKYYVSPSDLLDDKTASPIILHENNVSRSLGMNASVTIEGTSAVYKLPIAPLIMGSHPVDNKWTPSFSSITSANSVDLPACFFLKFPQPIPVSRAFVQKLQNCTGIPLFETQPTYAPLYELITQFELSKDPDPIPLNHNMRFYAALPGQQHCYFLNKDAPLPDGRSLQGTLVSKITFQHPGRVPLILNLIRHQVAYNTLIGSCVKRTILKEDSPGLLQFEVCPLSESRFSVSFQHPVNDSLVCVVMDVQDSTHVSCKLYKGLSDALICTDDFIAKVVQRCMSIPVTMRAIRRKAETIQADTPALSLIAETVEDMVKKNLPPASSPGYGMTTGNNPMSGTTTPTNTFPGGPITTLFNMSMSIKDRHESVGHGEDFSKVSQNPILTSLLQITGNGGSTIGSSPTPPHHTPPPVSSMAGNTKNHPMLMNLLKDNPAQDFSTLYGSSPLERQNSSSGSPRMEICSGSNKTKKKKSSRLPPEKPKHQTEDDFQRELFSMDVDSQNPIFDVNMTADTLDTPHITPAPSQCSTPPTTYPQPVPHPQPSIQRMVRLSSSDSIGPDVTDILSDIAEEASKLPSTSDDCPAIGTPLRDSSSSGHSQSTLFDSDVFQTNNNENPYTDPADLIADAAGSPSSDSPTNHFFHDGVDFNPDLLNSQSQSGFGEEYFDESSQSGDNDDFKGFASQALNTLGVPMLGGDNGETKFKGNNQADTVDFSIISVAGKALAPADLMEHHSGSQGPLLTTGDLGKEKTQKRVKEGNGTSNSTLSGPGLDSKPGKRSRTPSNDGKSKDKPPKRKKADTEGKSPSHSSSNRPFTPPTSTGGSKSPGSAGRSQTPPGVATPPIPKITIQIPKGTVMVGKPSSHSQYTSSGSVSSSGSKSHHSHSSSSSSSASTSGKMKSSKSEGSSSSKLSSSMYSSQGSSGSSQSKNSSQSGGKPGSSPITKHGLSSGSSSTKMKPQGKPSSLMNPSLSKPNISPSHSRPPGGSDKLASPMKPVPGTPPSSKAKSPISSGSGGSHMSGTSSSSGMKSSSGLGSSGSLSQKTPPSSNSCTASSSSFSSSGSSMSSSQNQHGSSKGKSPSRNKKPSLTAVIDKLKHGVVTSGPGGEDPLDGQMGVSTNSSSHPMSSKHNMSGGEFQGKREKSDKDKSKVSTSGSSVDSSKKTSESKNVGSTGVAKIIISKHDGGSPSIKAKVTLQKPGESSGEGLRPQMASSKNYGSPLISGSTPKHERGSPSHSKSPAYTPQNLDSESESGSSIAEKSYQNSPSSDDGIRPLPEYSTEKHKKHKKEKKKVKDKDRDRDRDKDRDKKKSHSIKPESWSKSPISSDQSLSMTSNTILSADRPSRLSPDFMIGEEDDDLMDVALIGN
UniProt Q92560: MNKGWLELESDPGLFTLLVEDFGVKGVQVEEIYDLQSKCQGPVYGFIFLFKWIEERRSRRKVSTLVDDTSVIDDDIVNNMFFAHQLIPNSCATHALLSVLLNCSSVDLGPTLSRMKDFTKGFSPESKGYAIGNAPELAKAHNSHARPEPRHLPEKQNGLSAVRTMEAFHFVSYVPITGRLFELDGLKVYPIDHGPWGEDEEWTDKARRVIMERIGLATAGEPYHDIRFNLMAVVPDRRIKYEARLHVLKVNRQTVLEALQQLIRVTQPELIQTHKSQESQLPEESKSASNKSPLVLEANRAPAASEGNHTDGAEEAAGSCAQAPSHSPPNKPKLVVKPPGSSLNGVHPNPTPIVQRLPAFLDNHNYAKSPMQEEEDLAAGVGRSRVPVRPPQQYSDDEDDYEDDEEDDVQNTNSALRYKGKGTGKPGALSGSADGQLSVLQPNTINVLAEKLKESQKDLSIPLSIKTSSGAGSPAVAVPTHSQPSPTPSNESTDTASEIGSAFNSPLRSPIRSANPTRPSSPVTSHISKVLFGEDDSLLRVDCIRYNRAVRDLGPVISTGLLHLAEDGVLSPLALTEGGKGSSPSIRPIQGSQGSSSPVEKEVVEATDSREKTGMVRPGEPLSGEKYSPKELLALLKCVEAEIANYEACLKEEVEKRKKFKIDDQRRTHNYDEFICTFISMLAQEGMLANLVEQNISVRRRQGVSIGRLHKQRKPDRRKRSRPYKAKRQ

These are yes or no findings as the source states them, for the method shown. In cells and extracts the contact can be indirect. Some binding calls cover weakened binding; strength is not graded here.

The experiment has as its target mediator of RNA polymerase II transcription subunit 1 (Med1) (human (endogenous in HEK 293T)) (UniProt Q15648). In words: co-IP; 293T cells transfected with BAP1 or BAP1 C91A plasmids for 36 h; lysis buffer 50 mM Tris-HCl pH 7.5, 1 mM EDTA, 10% glycerol, 300 mM NaCl, 1% Triton-100; lysates incubated with anti-Med1 overnight at 4°C and protein A/G PLUS-Agarose for 2 h; immunoblot with anti-SRT or anti-BAP1. Background: Immunoblotting shows a protein as a band on a membrane.

As for “SRT-BAP1 wild type (BRCA1-associated protein 1) (from UniProt Q92560 1-729) (enzyme)”, the binding entry is listed as “binds”.
